Test results taken from PubChem BioAssay (NCATS).
The other results are listed elsewhere or left out. Further columns of the screen follow, without active or inactive calls. Most of these compounds were active or inconclusive in the main read-out, so they are no random draw. For part of these data: The note in brackets gives the kind of curve behind each potency; many fits are weak.

Assay: qHTS assay for small molecule antagonists of peroxisome proliferator-activated receptor gamma signaling (AID 588537)
Conditions: HEK293 PPARg-UAS-bla, beta-lactamase ratio, antagonist mode; measured here: W460 blue channel
Summary of the method: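 PPARγ-UAS-bla HEK293 cells (3000/well) in 1% charcoal/dextran-stripped FBS are treated with compound, then stimulated with 50 nM rosiglitazone for 16 h at 37 °C. Read-out is CCF4 β-lactamase fluorescence after 2 h at RT. IC50 comes from Hill fits normalised to rosiglitazone and DMSO.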

Structure (SMILES) | AC50
CCCCC(=O)N(C)C | 50.1 µM [rising, single point]
CCCCC(CC)COC(=O)/C=C\C(=O)OCC(CC)CCCC (centres undefined) | 0.00126 µM [falling, full curve, poor fit]
C=C(C)OC(C)=O | 50.1 µM [rising, single point]
CC(=O)c1cccc([N+](=O)[O-])c1 | 44.7 µM [rising, single point]
Cc1ccc(C(C)(C)C)cc1 | 70.8 µM [rising, single point]
CC(N)CN (centres undefined) | 50.1 µM [rising, single point]
Clc1cc(Cl)cc(Cl)c1 | 50.1 µM [rising, single point]
CN1[C@H]2CC(OC(=O)[C@H](CO)c3ccccc3)C[C@H]1[C@H]1O[C@H]12 (some centres undefined) | 70.8 µM [rising, single point]
O=Cc1ccc(C(=O)O)cc1 | 28.2 µM [rising, single point]
C=CCNC(N)=S | 50.1 µM [rising, single point]

2 entries from above, reformatted:
C=C(C)OC(C)=O
  AC50: 50.1 µM [rising, single point]
CC(=O)c1cccc([N+](=O)[O-])c1
  AC50: 44.7 µM [rising, single point]

Assay: qHTS assay for small molecule agonists of retinoid X receptor alpha signaling (AID 588544)
Conditions: HEK293T RXRa-UAS-bla, beta-lactamase reporter, 18 h; 530 nm emission

Structure (SMILES) | max response [%]
COC1=CC(=O)C[C@@H](C)[C@]12Oc1c(Cl)c(OC)cc(OC)c1C2=O | 30.2
CC1=C(/C=C/C(C)=C/C=C/C(C)=C\C=O)C(C)(C)CCC1 | 2.29
C[C@]12CC[C@@H]3c4ccc(O)cc4CC[C@H]3[C@@H]1CC[C@H]2O | 10.3
CC1(C)[C@@H]([C@@H](Br)C(Br)(Br)Br)[C@H]1C(=O)O[C@H](C#N)c1cccc(Oc2ccccc2)c1 | -8.16
C=C[C@@]1(C)CC(=O)[C@]2(O)[C@@]3(C)[C@@H](O)CCC(C)(C)[C@@H]3[C@H](O)[C@H](OC(C)=O)[C@@]2(C)O1 | -13.2
Cc1cc2nc3c(=O)[nH]c(=O)nc-3n(C[C@H](O)[C@H](O)[C@H](O)CO)c2cc1C | 78.1
O=c1oc2cc(O)ccc2c2oc3cc(O)ccc3c12 | 45.4
CC(=O)CC(=O)Nc1ccc(C)cc1C | 42.9
CC/C=C/C/C=C/C/C=C/CCCCCCCC(=O)OCC | 60
CN(C)c1ccc(C(=N)c2ccc(N(C)C)cc2)cc1 | 21.5

Assay: qHTS assay for small molecule antagonists of retinoid X receptor alpha signaling (AID 588546);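 also: cells stimulated with 9-cis-retinoic acid as agonist; % is scaled to controls: 0 for no effect and ±100 for the full control effect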
Conditions: HEK293T RXRa-UAS-bla, beta-lactamase ratio, antagonist mode; measured here: W530 green channel, cytotoxicity proxy
Summary of the method: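 Beta-lactamase reporter inhibition, read as CCF4 fluorescence ratio (ex 405, em 460/530 nm) after 2 h at RT. HEK293T UAS-bla cells, 2500/well, were stimulated with 9-cis-RA at 500 or 100 nM final alongside test compound for 18 h at 37 C.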

Structure (SMILES) | max response [%]
COC1=CC(=O)C[C@@H](C)[C@]12Oc1c(Cl)c(OC)cc(OC)c1C2=O | 5.89
CC1=C(/C=C/C(C)=C/C=C/C(C)=C\C=O)C(C)(C)CCC1 | 9.05
C[C@]12CC[C@@H]3c4ccc(O)cc4CC[C@H]3[C@@H]1CC[C@H]2O | -12.4
CCOC(=O)C(C)C(C)=O (centres undefined) | -8.5
O=[N+]([O-])c1ccc2nc[nH]c2c1 | -13.3
c1ccc2[nH]cnc2c1 | -8.61
CC1(C)[C@@H]([C@@H](Br)C(Br)(Br)Br)[C@H]1C(=O)O[C@H](C#N)c1cccc(Oc2ccccc2)c1 | -41
C=C[C@@]1(C)CC(=O)[C@]2(O)[C@@]3(C)[C@@H](O)CCC(C)(C)[C@@H]3[C@H](O)[C@H](OC(C)=O)[C@@]2(C)O1 | -13.5
CCCCOCCOCCOCCCC | -6.41
Cc1cc2nc3c(=O)[nH]c(=O)nc-3n(C[C@H](O)[C@H](O)[C@H](O)CO)c2cc1C | 70.7
Cc1cccc(C(=O)O)c1[N+](=O)[O-] | 0.683
O=c1oc2cc(O)ccc2c2oc3cc(O)ccc3c12 | 33.3
O=C(O)CCCCC(=O)O | -10.9
CCOC(=O)C1=NN(c2ccc(Cl)cc2Cl)C(C)(C(=O)OCC)C1 (centres undefined) | -15.7
O=C1O[C@H]([C@@H](O)CO)C(O)=C1O | -6.35
CC(=O)CC(=O)Nc1ccc(C)cc1C | 12.8
CC/C=C/C/C=C/C/C=C/CCCCCCCC(=O)OCC | 46.5
CN(C)c1ccc(C(=N)c2ccc(N(C)C)cc2)cc1 | 18.9
Nc1ccc(N)c2c1C(=O)c1c(N)ccc(N)c1C2=O | -19.5
